Assay results: paper PMC7967059

Sequences of proteins named here, by UniProt entry; tags and fusion partners are left off. A change or cut given only in a name is not applied to a line headed by its entry.
UniProt P43121: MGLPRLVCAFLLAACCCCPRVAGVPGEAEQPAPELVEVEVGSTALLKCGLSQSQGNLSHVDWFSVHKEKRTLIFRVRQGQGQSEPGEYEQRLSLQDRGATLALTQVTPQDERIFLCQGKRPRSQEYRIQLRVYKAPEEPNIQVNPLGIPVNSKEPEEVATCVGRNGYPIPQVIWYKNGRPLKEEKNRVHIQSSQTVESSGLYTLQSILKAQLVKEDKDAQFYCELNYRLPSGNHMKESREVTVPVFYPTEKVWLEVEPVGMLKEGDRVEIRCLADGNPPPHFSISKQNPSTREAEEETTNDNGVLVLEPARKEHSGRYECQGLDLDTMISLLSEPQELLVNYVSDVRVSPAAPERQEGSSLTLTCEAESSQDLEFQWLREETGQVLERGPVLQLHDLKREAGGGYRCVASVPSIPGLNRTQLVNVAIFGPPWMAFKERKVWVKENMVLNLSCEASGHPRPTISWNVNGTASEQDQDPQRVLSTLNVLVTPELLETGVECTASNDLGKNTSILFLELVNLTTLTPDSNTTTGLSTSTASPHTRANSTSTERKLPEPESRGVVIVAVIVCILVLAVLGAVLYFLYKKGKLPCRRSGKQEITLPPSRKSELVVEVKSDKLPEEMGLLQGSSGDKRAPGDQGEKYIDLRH

Columns and labels:
[1] = molecular target: T1, purified His‐tagged ANGPTL2 (UniProt Q9UKU9); assay: pull-down; purified His‐ANGPTL2 and CD146 (200 ng mL^-1 each) in PBS, 1 h, 4 °C; precipitated with anti‐CD146 antibodies or anti‐His tag antibodies; western blot; both purified
T1 sequence: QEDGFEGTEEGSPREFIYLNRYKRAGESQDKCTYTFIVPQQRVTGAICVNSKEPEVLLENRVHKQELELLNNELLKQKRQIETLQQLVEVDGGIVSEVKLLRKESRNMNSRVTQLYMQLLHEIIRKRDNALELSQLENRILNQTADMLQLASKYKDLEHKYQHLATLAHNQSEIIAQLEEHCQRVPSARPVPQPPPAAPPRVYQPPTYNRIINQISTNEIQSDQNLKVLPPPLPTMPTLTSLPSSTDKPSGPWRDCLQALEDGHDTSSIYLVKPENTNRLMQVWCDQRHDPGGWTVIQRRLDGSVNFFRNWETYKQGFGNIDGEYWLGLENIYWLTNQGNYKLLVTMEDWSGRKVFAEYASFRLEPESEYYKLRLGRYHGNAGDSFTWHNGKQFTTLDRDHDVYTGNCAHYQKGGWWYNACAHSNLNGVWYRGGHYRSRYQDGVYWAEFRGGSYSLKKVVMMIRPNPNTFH

[2] = molecular target: T2, CD146, endogenous in mouse adipose tissue (mouse (endogenous in WAT and BAT)) (UniProt Q8R2Y2); assay: co-IP; epididymal adipose tissue (WAT) of mice fed ND or HFD (lean and obese), RIPA lysate; specific antibodies and protein G PLUS‐agarose overnight at 4 °C; wash with 1 M NaCl, 1% NP‐40; western blot
T2 sequence: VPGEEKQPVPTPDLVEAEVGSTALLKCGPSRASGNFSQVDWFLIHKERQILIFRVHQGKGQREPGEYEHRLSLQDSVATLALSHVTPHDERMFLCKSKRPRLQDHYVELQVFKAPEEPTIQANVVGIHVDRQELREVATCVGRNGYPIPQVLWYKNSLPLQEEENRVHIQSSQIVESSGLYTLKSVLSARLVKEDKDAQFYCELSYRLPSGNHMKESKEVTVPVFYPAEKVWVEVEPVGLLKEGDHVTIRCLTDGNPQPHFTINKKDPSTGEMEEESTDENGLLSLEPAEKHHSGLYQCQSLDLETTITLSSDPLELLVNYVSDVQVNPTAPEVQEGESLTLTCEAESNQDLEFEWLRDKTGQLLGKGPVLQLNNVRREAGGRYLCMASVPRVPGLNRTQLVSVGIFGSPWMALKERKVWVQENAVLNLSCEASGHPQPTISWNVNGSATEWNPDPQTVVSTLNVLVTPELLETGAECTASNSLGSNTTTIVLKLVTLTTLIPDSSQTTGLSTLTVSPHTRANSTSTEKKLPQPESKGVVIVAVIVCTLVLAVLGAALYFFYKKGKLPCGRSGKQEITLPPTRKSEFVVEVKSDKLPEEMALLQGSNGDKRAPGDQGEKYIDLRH

[3] = molecular target: purified CD146 protein (UniProt P43121); assay: pull-down; receptor blocking: anti‐CD146 AA1 or AA98 first incubated with CD146 (200 ng mL^-1) and protein G PLUS‐agarose beads, then with ANGPTL2 (200 ng mL^-1); western blot; both purified
[4] = molecular target: purified CD146 protein (UniProt P43121); assay: pull-down; purified His‐ANGPTL2 and CD146 (200 ng mL^-1 each) in PBS, 1 h, 4 °C; precipitated with anti‐CD146 antibodies or anti‐His tag antibodies; western blot; both purified
[5] = molecular target: CD146 with deleted 1st domain (ΔD1), Flag‐tagged; assay: co-IP; HEK293 cells cotransfected with ANGPTL2 and full‐length or truncated Flag‐CD146; RIPA lysate; anti‐FLAG M2 agarose beads overnight at 4 °C; western blot
[6] = molecular target: CD146 containing only the 5th domain (ΔD1‐4), Flag‐tagged; assay: as above
[7] = molecular target: CD146 with deleted 1st domain to the 3rd domain (ΔD1‐3), Flag‐tagged; assay: as above

binding [2]: no binding
Molecule: ANGPTL3 (mouse (endogenous in WAT)) (ligand)

binding [2]: no binding
Molecule: ANGPTL4 (mouse (endogenous in WAT)) (ligand)

binding [5]: binds
binding [6]: no binding
binding [7]: binds
B2: ANGPTL2 coexpressed in 293 cells (ligand, UniProt Q9UKU9 23-493)
chain: QEDGFEGTEEGSPREFIYLNRYKRAGESQDKCTYTFIVPQQRVTGAICVNSKEPEVLLENRVHKQELELLNNELLKQKRQIETLQQLVEVDGGIVSEVKLLRKESRNMNSRVTQLYMQLLHEIIRKRDNALELSQLENRILNQTADMLQLASKYKDLEHKYQHLATLAHNQSEIIAQLEEHCQRVPSARPVPQPPPAAPPRVYQPPTYNRIINQISTNEIQSDQNLKVLPPPLPTMPTLTSLPSSTDKPSGPWRDCLQALEDGHDTSSIYLVKPENTNRLMQVWCDQRHDPGGWTVIQRRLDGSVNFFRNWETYKQGFGNIDGEYWLGLENIYWLTNQGNYKLLVTMEDWSGRKVFAEYASFRLEPESEYYKLRLGRYHGNAGDSFTWHNGKQFTTLDRDHDVYTGNCAHYQKGGWWYNACAHSNLNGVWYRGGHYRSRYQDGVYWAEFRGGSYSLKKVVMMIRPNPNTFH

The next lines start with the molecule.

Molecule: purified CD146 protein (from UniProt P43121) (receptor)
binding [1]: binds

B1: purified His‐tagged ANGPTL2 (ligand, UniProt Q9UKU9 23-493)
chain: QEDGFEGTEEGSPREFIYLNRYKRAGESQDKCTYTFIVPQQRVTGAICVNSKEPEVLLENRVHKQELELLNNELLKQKRQIETLQQLVEVDGGIVSEVKLLRKESRNMNSRVTQLYMQLLHEIIRKRDNALELSQLENRILNQTADMLQLASKYKDLEHKYQHLATLAHNQSEIIAQLEEHCQRVPSARPVPQPPPAAPPRVYQPPTYNRIINQISTNEIQSDQNLKVLPPPLPTMPTLTSLPSSTDKPSGPWRDCLQALEDGHDTSSIYLVKPENTNRLMQVWCDQRHDPGGWTVIQRRLDGSVNFFRNWETYKQGFGNIDGEYWLGLENIYWLTNQGNYKLLVTMEDWSGRKVFAEYASFRLEPESEYYKLRLGRYHGNAGDSFTWHNGKQFTTLDRDHDVYTGNCAHYQKGGWWYNACAHSNLNGVWYRGGHYRSRYQDGVYWAEFRGGSYSLKKVVMMIRPNPNTFH
binding [3]: binds
binding [4]: binds

These are yes or no findings as the source states them, for the method shown. For some assays here: Binding can be weak; no strength is given. For some assays here: Tags and fused reporters may be left off the sequences shown. For some assays here: In cells and extracts the contact can be indirect. One block for each molecule: values may come before it.
